Results: PMC11199710
These are yes or no findings as the source states them, for the method shown.

By UniProt entry, the sequences of proteins in these tests, tags left out.
UniProt P18065: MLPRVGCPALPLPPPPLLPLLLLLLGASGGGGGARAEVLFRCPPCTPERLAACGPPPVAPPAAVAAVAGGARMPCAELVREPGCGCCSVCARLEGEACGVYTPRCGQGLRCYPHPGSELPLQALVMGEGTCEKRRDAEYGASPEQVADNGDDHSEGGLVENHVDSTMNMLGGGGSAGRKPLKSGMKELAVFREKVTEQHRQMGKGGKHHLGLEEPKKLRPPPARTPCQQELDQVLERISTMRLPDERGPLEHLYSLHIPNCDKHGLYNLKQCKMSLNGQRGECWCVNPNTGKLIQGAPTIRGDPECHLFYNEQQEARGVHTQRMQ
UniProt P08648: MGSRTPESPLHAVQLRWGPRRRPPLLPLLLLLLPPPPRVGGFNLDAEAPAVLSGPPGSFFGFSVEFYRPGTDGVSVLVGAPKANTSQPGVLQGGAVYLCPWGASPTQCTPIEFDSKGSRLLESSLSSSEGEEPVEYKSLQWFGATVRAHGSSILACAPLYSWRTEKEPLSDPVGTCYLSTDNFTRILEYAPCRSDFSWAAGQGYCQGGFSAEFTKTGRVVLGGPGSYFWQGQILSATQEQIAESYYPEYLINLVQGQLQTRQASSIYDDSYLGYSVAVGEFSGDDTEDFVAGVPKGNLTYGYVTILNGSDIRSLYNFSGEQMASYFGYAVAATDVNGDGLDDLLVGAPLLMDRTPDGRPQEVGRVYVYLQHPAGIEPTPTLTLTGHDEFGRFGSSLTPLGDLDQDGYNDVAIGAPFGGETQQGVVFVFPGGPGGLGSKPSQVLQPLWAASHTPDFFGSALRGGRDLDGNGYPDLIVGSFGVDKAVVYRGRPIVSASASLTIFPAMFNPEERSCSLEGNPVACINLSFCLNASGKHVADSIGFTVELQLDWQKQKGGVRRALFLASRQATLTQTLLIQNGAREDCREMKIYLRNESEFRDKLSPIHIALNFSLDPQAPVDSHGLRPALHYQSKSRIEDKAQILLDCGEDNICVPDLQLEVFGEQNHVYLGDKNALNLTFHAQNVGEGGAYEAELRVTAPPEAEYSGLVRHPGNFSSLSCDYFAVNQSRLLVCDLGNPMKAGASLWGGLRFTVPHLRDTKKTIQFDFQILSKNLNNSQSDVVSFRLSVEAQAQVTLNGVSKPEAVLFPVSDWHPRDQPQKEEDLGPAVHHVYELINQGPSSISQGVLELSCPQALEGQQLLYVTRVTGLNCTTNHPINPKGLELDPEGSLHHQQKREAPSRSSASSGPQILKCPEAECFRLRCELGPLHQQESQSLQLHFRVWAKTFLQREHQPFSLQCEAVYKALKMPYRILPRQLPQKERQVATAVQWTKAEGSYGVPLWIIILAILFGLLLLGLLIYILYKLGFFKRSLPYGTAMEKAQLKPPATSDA

Target: Insulin-like growth factor binding protein 2 (pAS-2-IGFBP2 construct) (UniProt P18065)
Test: two-hybrid; pAS-2-IGFBP2 transformed into S. cerevisiae AH109, then pAS-2-ITGA5; cultured in selective media for 5~7 days

binding: no binding
Substance: Integrin-α5 (pAS-2-ITGA5 construct) (from UniProt P08648 1-1049)
